In patent publication US20230063922A1:
These are yes or no findings as the source states them, for the method shown. In cells and extracts the contact can be indirect. Some results given as binding are weak or reduced against the parent protein; the word gives no strength. Blank lines part the entries; values can stand above or below the substance they belong to.

Sequences of proteins named here, by UniProt entry; tags and fusion partners are left off. A change or cut given only in a name is not applied to a line headed by its entry.
UniProt P62304: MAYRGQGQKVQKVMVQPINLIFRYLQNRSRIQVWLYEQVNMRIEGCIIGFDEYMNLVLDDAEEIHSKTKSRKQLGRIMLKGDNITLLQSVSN
UniProt P62318: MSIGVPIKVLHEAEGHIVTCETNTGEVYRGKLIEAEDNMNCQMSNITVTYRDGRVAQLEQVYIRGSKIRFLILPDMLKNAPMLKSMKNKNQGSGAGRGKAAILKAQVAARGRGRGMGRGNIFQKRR
UniProt P62314: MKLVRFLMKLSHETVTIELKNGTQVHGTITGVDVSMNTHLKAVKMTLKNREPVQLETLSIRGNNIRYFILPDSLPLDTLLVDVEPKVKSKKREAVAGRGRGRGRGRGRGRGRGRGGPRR
UniProt P62308: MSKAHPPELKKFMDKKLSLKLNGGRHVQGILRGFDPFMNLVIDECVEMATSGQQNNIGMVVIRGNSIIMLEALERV

Columns and labels:
SmB1-95-GALA3 = experiment: co-expression in E. coli, co-purification through the His tag on SmD3 (HisTrap, heparin)
SmD2-EGF = experiment: co-expression in E. coli, co-purification through the His tag on SmD1 (HisTrap, heparin)
[1] = biological target: SmE (Homo sapiens (Human)) (UniProt P62304); experiment: co-expression in E. coli, co-purification through the His tag on SmG
[2] = biological target: SmE (Homo sapiens (Human)) (UniProt P62304); experiment: co-expression in E. coli, co-purification through the His tag on SmG (HisTrap, heparin)

Substance: His-SmD3 (from UniProt P62318 2-126)
binding (SmB1-95-GALA3): binds

binding (SmD2-EGF): binds
Substance: His-SUMO-SmD1 (from UniProt P62314 1-118)

binding [1]: binds
binding [2]: binds
Substance: SmG-His (from UniProt P62308 1-76)
